These are yes or no findings as the source states them, for the method shown. Binding seen in cells or lysates may run through a third protein. Some entries that bind do so weakly or less than the wild type. Sequences can lack the tags named with a protein.
Molecular target: T1, endogenous E3 ligase TMEM129 (human (endogenous in HeLa)) (UniProt A0AVI4)
T1 sequence: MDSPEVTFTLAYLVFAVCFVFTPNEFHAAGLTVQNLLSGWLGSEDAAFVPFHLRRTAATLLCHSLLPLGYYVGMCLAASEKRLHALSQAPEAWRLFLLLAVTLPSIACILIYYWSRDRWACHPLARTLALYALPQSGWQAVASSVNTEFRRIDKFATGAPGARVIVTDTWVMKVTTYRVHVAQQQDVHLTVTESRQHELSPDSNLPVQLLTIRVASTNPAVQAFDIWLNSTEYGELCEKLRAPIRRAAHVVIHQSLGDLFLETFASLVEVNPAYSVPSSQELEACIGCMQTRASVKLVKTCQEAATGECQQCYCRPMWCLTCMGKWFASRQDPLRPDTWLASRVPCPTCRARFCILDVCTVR
Test: co-IP; HeLa^FcRn cells without US11, transfected with Derlin-1 plasmid for 48 h; anti-FLAG or anti-TMEM129 antibody; western blot

B1: Myc-tagged Derlin-1 (protein, UniProt Q9BUN8 1-251)
chain: MSDIGDWFRSIPAITRYWFAATVAVPLVGKLGLISPAYLFLWPEAFLYRFQIWRPITATFYFPVGPGTGFLYLVNLYFLYQYSTRLETGAFDGRPADYLFMLLFNWICIVITGLAMDMQLLMIPLIMSVLYVWAQLNRDMIVSFWFGTRFKACYLPWVILGFNYIIGGSVINELIGNLVGHLYFFLMFRYPMDLGGRNFLSTPQFLYRWLPSRRGGVSGFGVPPASMRRAADQNGGGGRHNWGQGFRLGDQ
With B1 the binding was “binds”.

From article PMC6617459
